We go through 37 molecules from PubChem BioAssay AID2685 (National Center for Advancing Translational Sciences (NCATS), 2010).

Some of the results follow. These are further read-outs of the screen, such as a control signal, another cell line or another target. No call is given for them. Most of these compounds were active or inconclusive in the main read-out, so they are no random draw. Potencies come from curve fits of mixed quality, noted in brackets.

The test in a line: qHTS Assay for Lipid Storage Modulators in Drosophila S3 Cells.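 On cell number change: cells counted by Cell Tracker Red CMTPX staining in the red channel.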 To be noted: BODIPY lipid droplet fluorescence, 18-24 h; for cell number change: measured here: cell count max response, cells fed with added oleic acid. Put shortly:
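Drosophila S3 cells got compounds at several concentrations plus oleic acid (400 uM solution). Laser-scanning cytometry with 488 nm excitation read lipid droplets at 500-530 nm and cells at 575-640 nm. Percent activity was relative to 20 uM Triacsin C.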

The mark [1] stands for this setting: measured here: lipid fluorescence (Fed channel) AC50, cells fed with added oleic acid.
[2] abbreviates: measured here: cell number channel AC50, cells fed with added oleic acid.

In the case of `O=C1c2cccc(OCC(=O)N3CCCc4ccccc43)c2CCN1Cc1ccc(F)cc1`, the cell number change came out at 18.3%. Under setting [1], the AC50 is 2.06 µM [rising, single point].
For `CCC(c1nnc(SCC(=O)Nc2cc(S(C)(=O)=O)ccc2Cl)n1Cc1ccccc1)N(C)C` (stereo not drawn), the cell number change turned out to be 25.6%. Further, the AC50 under setting [1] is 1 µM [rising, partial curve].
`COc1cccc(NC(=O)CN(C)C(=O)CCc2nc3sc4c(c3c(=O)[nH]2)CCCC4)c1`: the cell number change is -19.1%. Also, the AC50 under setting [1] was 18.4 µM [falling, single point].
Consider `Cc1cc(C)cc(NC(=O)CN2CCN(c3ccccn3)CC2)c1`, for which the half-maximal activity concentration (AC50) under setting [1] was 18.4 µM [falling, single point].
As for `CCN(C(=O)CN1CCC(C)CC1)c1c(N)n(Cc2ccccc2)c(=O)[nH]c1=O`, the cell number change is 64.3%. Further, under setting [2], the half-maximal activity concentration (AC50) is 32.6 µM [rising, single point]. In addition, the AC50 under setting [1] is 32.6 µM [rising, single point].
Consider `CCCn1c(SCC(=O)Nc2ccccc2C(=O)OC)nc2c1c(=O)n(C)c(=O)n2C`, for which the AC50 under setting [2] is 2.31 µM [rising, partial curve] and the AC50 under setting [1] was 1.84 µM [rising, partial curve].
As for `CCOC(=O)/C=C/C(=O)OCC(=O)Nc1ccc(Cl)cn1`, the cell number change amounted to 6.72%.
On to `N#Cc1cc(C(=O)c2cc(Br)ccc2O)cn(C2CC2)c1=O`, for which the cell number change is -37%. For the same molecule, the AC50 under setting [2] is 29.1 µM [falling, single point].
Regarding `CCN(CC)C(=O)CN(c1cc(Cl)ccc1OC)S(=O)(=O)c1ccc(C)c([N+](=O)[O-])c1`, the cell number change was -0.663%.
Turning to `CC(C(=O)OCC(=O)c1cccc([N+](=O)[O-])c1)N1C(=O)C2C3C=CC(C3)C2C1=O` (stereo not drawn), the cell number change is 5.13%. For the same molecule, the AC50 under setting [1] is 1.84 µM [rising, full curve].
`CCN(CC1COc2ccccc2O1)C(=O)CN1C(=O)NC(C)(c2ccccc2)C1=O` (stereo not drawn): the cell number change was -3.89%.
For `Cc1cc(C(F)F)n2nc(C(=O)Nc3ccc(S(=O)(=O)N4CCCC4)cc3)nc2n1`, the cell number change was -0.583%. The AC50 under setting [1] is 1.64 µM [rising, partial curve, poor fit].
Consider `COc1ccc(NC(=O)c2cc(CC(C)C)nc3ccccc23)cc1`, for which the cell number change was -0.275%. Under setting [2], the AC50 was 0.146 µM [falling, full curve, poor fit]. Besides, under setting [1], the AC50 is 29.1 µM [rising, single point].
For `CCCc1ccc2oc(C(=O)N3CCC(N4CCCC(O)C4)CC3)c(C)c2c1` (stereo not drawn), the cell number change came out at 52.5%. The AC50 under setting [2] is 20.6 µM [rising, partial curve]. The AC50 under setting [1] was 32.6 µM [rising, single point].
For the molecule `CCN(CC)CCNC(=O)c1cc2c(s1)-c1ccccc1SC2`, the cell number change turned out to be 41.5%. For the same molecule, the AC50 under setting [2] was 14.6 µM [rising, partial curve, poor fit]. The AC50 under setting [1] was 16.4 µM [rising, single point].
As to `CCCN1CCN(c2nc3c([nH]2)c(=N)ncn3CC(O)CO)CC1` (stereo not drawn), the cell number change is -22.7%. Moreover, under setting [2], the AC50 is 0.291 µM [falling, full curve, poor fit]. The AC50 under setting [1] was 0.259 µM [falling, full curve].
As to `COc1cccc(-n2nc(C(C)=O)c(=O)[nH]c2=O)c1`, the cell number change is -121%. Further, under setting [2], the AC50 was 20.6 µM [falling, single point].
On to `CC1CC(C)CN(CC(O)COCc2ccccc2)C1` (stereo not drawn), for which the cell number change was 15.5%. Besides, the AC50 under setting [1] was 0.291 µM [rising, full curve, poor fit].
On to `O=C(C(c1ccccc1)c1ccccc1)N1CCN(CC(O)COc2ccccc2)CC1` (stereo not drawn), for which the AC50 under setting [1] was 3.66 µM [falling, full curve].
As to `CCOc1ccccc1NC(=O)NNC(=O)COc1cccc(C)c1C`, the cell number change stood at 8.19%. For the same molecule, the AC50 under setting [1] was 5.17 µM [rising, single point].
Turning to `COc1ccc(-n2nc([N+](=O)[O-])c(=NCc3ccc4c(c3)OCO4)n2O)cc1`, the cell number change came to 2.08%. Also, the AC50 under setting [2] was 6.51 µM [rising, single point]. Moreover, the AC50 under setting [1] was 4.11 µM [rising, single point].
Consider `CN(C)CCn1c(C(=O)Nc2ccccc2)cc2ccccc21`, for which the cell number change is -23.4%. In addition, under setting [1], the AC50 is 32.6 µM [falling, single point].
Regarding `OC(CNCC(c1ccco1)N1CCCCC1)c1ccccc1` (stereo not drawn), the cell number change is -17.8%.
As to `COc1ccc(CCC(C)Nc2ccc(F)c(F)c2)cc1` (stereo not drawn), the cell number change was -37.2%. In addition, under setting [2], the AC50 is 14.6 µM [falling, single point]. Besides, the AC50 under setting [1] was 29.1 µM [falling, single point].
As for `CCC(C)Sc1ccc([C@@H]2[C@@H]3C(=O)N(C)C(=O)[C@@H]3[C@]3(C(=O)OC)CCCCN23)cc1` (stereo partly drawn), the cell number change is 10.6%. The AC50 under setting [1] was 29.1 µM [rising, single point].
With `COc1cccc(N2CN(CCc3ccccc3)CNC2=S)c1`, the cell number change was -0.299%. The AC50 under setting [1] is 0.146 µM [falling, full curve].
In the case of `Cc1[nH]nc2c1C1(CCC(c3ccccc3)CC1)C(C#N)=C(N)O2` (stereo not drawn), the cell number change was -15.2%. In addition, the AC50 under setting [1] was 0.461 µM [rising, single point].
With `CCOC(=O)c1[nH]c(C)c(C(=O)O)c1C`, the cell number change came to 31.8%. For the same molecule, under setting [2], the AC50 is 1.84 µM [rising, full curve, poor fit]. The AC50 under setting [1] was 3.66 µM [falling, full curve].
With `O=C(O)C1CC(c2ccc(F)cc2)=NO1` (stereo not drawn), the cell number change is -38.3%. For the same molecule, the AC50 under setting [2] was 25.9 µM [falling, single point]. For the same molecule, under setting [1], the AC50 was 29.1 µM [falling, single point].
As to `Cc1ccc(O)c(N=NC2=C(O)CC(C)(C)CC2=O)c1`, the cell number change is -31.3%. Besides, the AC50 under setting [1] was 23.1 µM [falling, partial curve].
Take `Cc1ccc([N+](=O)[O-])cc1S(=O)(=O)Nc1ccc(N2CCOCC2)cc1`: the cell number change turned out to be 27.5%. Further, the AC50 under setting [1] was 18.4 µM [rising, single point].
`COc1cccc(CN2CCN(Cc3ccco3)CC2)c1`: under setting [2], the AC50 is 0.58 µM [falling, single point].
On to `CCC1CCCCN1CC(O)Cn1c2ccccc2n2c(=O)cc(C)c(C#N)c12` (stereo not drawn), for which the cell number change turned out to be 17.4%. Also, the AC50 under setting [1] was 1.46 µM [rising, partial curve, poor fit].
Regarding `Cc1cccc(C(C)C)c1NS(=O)(=O)c1cn(C)nc1C`, the cell number change was -4.85%. Further, under setting [1], the AC50 was 0.13 µM [rising, partial curve, poor fit].
Consider `CC(=O)Nc1ccc(NC(=O)COC(=O)c2n[nH]c3ccccc23)cc1`, for which the cell number change was -24.8%.
Turning to `Cc1noc(C)c1COc1ccccc1C(=O)NNC(=O)c1ccccc1`, the cell number change was -4.49%.
As for `COCCc1ncc(CN2CCCCC2C(=O)Nc2ccc(Oc3ccccc3)nc2)cn1` (stereo not drawn), the cell number change worked out at 6.74%.
